In patent publication US20090093002A1:
Where a chain is given by its changes, count along the chain named. Results are given in words; binding and its absence hold for the method and conditions named. Some entries that bind do so weakly or less than the wild type. Each block holds one binder with its values, some of them ahead of it.

By UniProt entry, the sequences of proteins in these tests, tags left out. Residues count along the entry.
UniProt P05067, residues 672-713: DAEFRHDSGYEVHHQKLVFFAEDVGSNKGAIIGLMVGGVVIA

Legend:
[1] = target: Amyloid Beta (antigen of the Amyloid Beta ELISA) (UniProt P05067); assay: Amyloid Beta ELISA, antibody purified from stable NS0 cell line
[2] = target: Amyloid Beta (antigen of the Amyloid Beta ELISA) (UniProt P05067); assay: Amyloid Beta ELISA, conditioned medium from transient transfection
[3] = target: T1, peptide 12 of the first library (aa 12-20 of Aβ); assay: ELISA on biotinylated peptides on streptavidin plates, hC2 at 200 ng/ml
T1 sequence (peptide, biotinylated): VHHQKLVFF

[4] = target: T2, peptide 16 of the first library (aa 16-24 of Aβ); assay: as above
T2 sequence (peptide, biotinylated): KLVFFAEDV

[5] = target: T3, peptide 15 of the first library (aa 15-23 of Aβ); assay: as above
T3 sequence (peptide, biotinylated): QKLVFFAED

[6] = target: T4, peptide 14 of the first library (aa 14-22 of Aβ); assay: as above
T4 sequence (peptide, biotinylated): HQKLVFFAE

[7] = target: T5, peptide 13 of the first library (aa 13-21 of Aβ); assay: as above
T5 sequence (peptide, biotinylated): HHQKLVFFA

[8] = target: T6, peptide p14-22 A22 of the third library (aa 14-22 of Aβ, aa 22 to alanine); assay: ELISA on biotinylated peptides of the third library, hC2 at 200 ng/ml
T6 sequence (peptide, biotinylated): HQKLVFFAA

[9] = target: T7, peptide p13-21 G21 of the third library (aa 13-21 of Aβ, aa 21 to glycine); assay: as above
T7 sequence (peptide, biotinylated): HHQKLVFFG

[10] = target: T8, peptide A15 of the second library (aa 12-20 of Aβ, aa 15 to alanine); assay: ELISA on biotinylated alanine-substituted peptides, hC2 at 200 ng/ml
T8 sequence (peptide, biotinylated): VHHAKLVFF

[11] = target: T9, peptide A18 of the second library (aa 12-20 of Aβ, aa 18 to alanine); assay: as above
T9 sequence (peptide, biotinylated): VHHQKLAFF

[12] = target: amyloid plaques of brains from AD patients (human) (UniProt P05067); assay: immunohistochemistry, paraffin sections of human brain pretreated with formic acid

binding [1]: binds
B1: humanized antibody C2 HuVH2/HuVK1 (antibody, human IgG4 S228P, kappa, V domains shown)
VH: EVQLVESGGGLVQPGGSLRLSCAASGFTFSSYGMSWVRQAPGKGLEWVASINSNGGSTYYPDSVKGRFTISRDNAKNSLYLQMNSLRAEDTAVYYCASGDYWGQGTTVTVSS
VL: DIVMTQSPLSLPVTPGEPASISCRSSQSLVYSNGDTYLHWYLQKPGQSPQLLIYKVSNRFSGVPDRFSGSGSGTDFTLKISRVEAEDVGVYYCSQSTHVPWTFGQGTKVEIKR

binding [3]: binds
binding [4]: binds
binding [5]: binds
binding [6]: binds
binding [7]: binds
binding [8]: binds
binding [9]: binds
binding [10]: binds
binding [11]: binds
B3: humanized monoclonal antibody hC2 (antibody, human IgG4 S228P, kappa, V domains shown)
VH: B1 VH with W47L
VL: B1 VL

binding [1]: binds
B5: humanized antibody C2 HuVH2/HuVK4 (antibody, human IgG4 S228P, kappa, V domains shown)
VH: B1 VH
VL: B1 VL with Q50K, Y92F

Second part, the binder before the results:

B2: C2 HuVH AF version 2 combined with the chimeric C2 kappa chain (antibody, V domains shown)
VH: B1 VH
VL: DVVMTQTPLSLPVSLGDQASISCRSSQSLVYSNGDTYLHWYLQKPGQSPKLLIYKVSNRFSGVPDRFSGSGSGTDFTLKISRVEAEDLGVYFCSQSTHVPWTFGGGTKLEIK
binding [2]: binds

B4: chimeric antibody C2 ChVH AF/ChVK (antibody, human IgG4 S228P, kappa, V domains shown)
VH: EVQLVESGGGLVQPGGSLKLSCAASGFTFSSYGMSWVRQTPDKRLELVASINSNGGSTYYPDSVKGRFTISRDNAKNTLYLQMSSLKSEDTAMYYCASGDYWGQGSTLTVSS
VL: DVVMTQTPLSLPVSLGDQASISCRSSQSLVYSNGDTYLHWYLQKPGQSPKLLIYKVSNRFSGVPDRFSGSGSGTDFTLKISRVEAEDLGVYFCSQSTHVPWTFGGGTKLEIKR
binding [1]: binds
binding [2]: binds
binding [12]: binds

B6: VK-R antibody (mC2 VK-R combined with chimeric C2 VH) (antibody, V domains shown)
VH: B4 VH
VL: B2 VL with K55R
binding [2]: binds

B7: VK-S antibody (mC2 VK-S combined with chimeric C2 VH) (antibody, V domains shown)
VH: B4 VH
VL: B2 VL with N58S
binding [2]: binds
